Reference: US20250171465A1, “AKT INHIBITORS” (Stablix, Inc., priority 2023, published 2025)
At least one compound was matched to its structure with a doubt left.

The chains behind the UniProt entries cited, without tags or fusion partners.
UniProt P31749, whole entry E17K: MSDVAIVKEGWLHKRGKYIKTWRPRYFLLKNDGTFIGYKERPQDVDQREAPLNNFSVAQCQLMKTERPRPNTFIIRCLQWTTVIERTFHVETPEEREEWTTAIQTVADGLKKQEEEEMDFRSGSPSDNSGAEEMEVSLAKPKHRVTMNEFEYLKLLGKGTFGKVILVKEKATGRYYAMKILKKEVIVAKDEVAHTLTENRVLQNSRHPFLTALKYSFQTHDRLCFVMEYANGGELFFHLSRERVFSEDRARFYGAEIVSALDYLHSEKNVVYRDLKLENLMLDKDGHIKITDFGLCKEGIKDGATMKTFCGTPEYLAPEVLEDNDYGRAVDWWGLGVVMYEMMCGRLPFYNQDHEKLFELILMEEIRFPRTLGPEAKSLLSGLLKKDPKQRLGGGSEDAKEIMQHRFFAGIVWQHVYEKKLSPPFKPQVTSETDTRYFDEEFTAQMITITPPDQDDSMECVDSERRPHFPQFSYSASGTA

Experiments:
AKT = AKT ubiquitination assay (TUBE pulldown, western blot); type: cell-based; conditions: KU-19-19 cells, 3 uM of compound, 6 hrs
Description: For each assay condition. 5.0×10^6 KU-19-19 cells were seeded in 10 cm dish grown in RPMI (Invitrogen. Carlsbad. CA. USA) supplemented with 10% fetal bovine serum. Cells were incubated overnight at 37° C. in a humidified atmosphere containing 5% CO2. […]. Next day, media was removed and cells were rinsed with 0.1% FBS cell culture media. Then 10 mL of 0.1% FBS+RPMI containing 3 uM of compound was added to each plate and treated with compound for 6 hrs. Cells were washed 3× with PBS and placed on ice. 900 μL of lysis buffer (50 mM Tris-HCl pH 7.4, 150 mM NaCl. 1% NP-40, 1% Sodium deoxycholate. 2 mM EDTA, 10% Glycerol, 5 mM Iodoacetamide (dissolved in ddH2O, MCE, Cat #HY-34477), 1×HALT protease\phosphatase inhibitor (Pierce. Cat #78440), 1×PMSF (Sigma. Cat #93482-50ML-F), 5 mM 1.10 Phenanthroline (in DMSO, MCE, Cat #HY—W004544), 25 uM MG-132 (in DMSO) (MCE. Cat #HY-13259), 50 μM PR-619 (make it in DMSO) (MCE. Cat #HY-13814) and 1× Benzonase (Sigma. Cat #E8263) was added and incubated on ice for 3-5 min and then scraped and collected. Lysates were incubated on ice for 1 hr and vortexed every 15 minutes before spinning down at 14 000 g for 10 minutes. Supernatants were collected and flash frozen in Liquid nitrogen for 10 minutes and stored at −80 C until further used. Adjust volume of samples with lysis buffer to obtain 1 mg in total volume of 1 mL. […]

AKT1 E17 = biological target: T1, AKT1 E17 (Homo sapiens, UniProt P31749, E17K); test: AKT plasma membrane translocation assay (AKT1 E17K-SmBiT / LCK1-LgBiT luminescence); type: cell-based; conditions: KU-19-19 cells transfected with AKT1E17K-SmBIT and LCK1-LgBiT, read up to 1 hr
T1 construct: expressed in transfected cells; host or cells: KU-19-19
Description: AKT plasma membrane translocation assay
Seed 1.5×10^6 KU-19-19 cells in 10 cm dish. Transfect cells at 70% cell confluency with 5 ug AKTIE17K-SmBIT and 0.5 ug LCK1-LgBiT with Jet-Optimus transfection reagent. Incubate for 4-5 hours at 37c 5% CO2 TC incubator. Split and seed 10K cells in 40 ul media per well in 384 well plate and incubate over night at 37° C. CO2 free TC incubator. Add 10 ul of 5× Vivazine substrate (prepared in CO2 independent medium) to cells and shake palte to mix for 30 seconds. Read Luminescence for 100 minutes until signal is stable (1 read per minute). Add 50 nl/well of 3 uM compound stock to cells.

Q: Which “Reduced AKT ubiquitination relative to PBM” value (AKT) does the source give for `CCOc1cc(OC)ccc1CNCC(=O)N1CCCC(c2cccc(C(=O)N[C@@H](C(=O)N3CCN(CC4CCN(CC(=O)NCCNC[C@@H](C(=O)N5CCN(c6ncnc7c6[C@H](C)C[C@H]7O)CC5)c5ccc(Cl)cc5)CC4)CC3)C3CCCCC3)c2)C1` (some centres unmarked) [Compound I-17] here?
A: Yes

Q: What about the “Reduced AKT1 E17 plasma membrane translocation relative to PBM” value (AKT1 E17) of the same molecule?
A: Yes
